PubChem BioAssay AID493246, Drosophila RNAi Screening Center, 2011
Screen: 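Genes fly cells need to grow and stay alive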 (primary screen). System: Drosophila Kc and S2R+ cells. Reagent: long dsRNA against Drosophila genes. Measurement: 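Cell number per well after knock-down, printed as raw plate values; calls were based on per-plate z-scores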. Scale: Kc cell number and S2R+ cell number: higher = more cells remaining. Active means: 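Counted as a hit if cell number falls by a z-score of at least 3 within its plate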.
In all, the deposit lists about 21,000 reagents; shown is an unselected part of those with a known target gene and a result. Of all reagents, 429 (2%) were called active. 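Values are raw and not normalised between plates; calls rest on per-plate z-scores that were not deposited.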 Entries without a mark were called inactive. Reagents against one gene are numbered here. Not stated in the record: the amount of reagent, the time to read-out.

The first 5 entries, to show the layout:
Kc cell number, rep 1	Kc cell number, rep 2	S2R+ cell number, rep 1	S2R+ cell number, rep 2	target	reagent
1.70e6	1.74e6	1.53e6	1.60e6	CG11726	1
1.47e6	1.53e6	1.22e6	1.38e6	ChLD3	1
1.10e6 (active)	1.20e6	6.06e5	6.94e5	Prosbeta3	1
1.52e6	1.55e6	1.02e6	1.10e6	CG12990	1
1.28e6	1.33e6	6.27e5	9.53e5	Slob (retired record)	1

The listing, from the first entry:
Kc cell number, rep 1	Kc cell number, rep 2	S2R+ cell number, rep 1	S2R+ cell number, rep 2	target	reagent
1.70e6	1.74e6	1.53e6	1.60e6	CG11726	1
1.47e6	1.53e6	1.22e6	1.38e6	ChLD3	1
1.10e6 (active)	1.20e6	6.06e5	6.94e5	Prosbeta3	1
1.52e6	1.55e6	1.02e6	1.10e6	CG12990	1
1.28e6	1.33e6	6.27e5	9.53e5	Slob (retired record)	1
1.46e6	1.47e6	1.08e6	1.23e6	beta4GalNAcTB	1
1.60e6	1.69e6	1.38e6	1.39e6	mip120	1
1.46e6	1.72e6	1.22e6	1.34e6	CG14085	1
1.23e6	1.35e6	1.32e6	1.36e6	Idgf2	1
1.37e6	1.51e6	1.21e6	1.24e6	Lsp1gamma	1
1.48e6	1.49e6	9.89e5	1.12e6	peng	1
5.57e5		9.05e5		CG31675	1
1.02e6 (active)	9.87e5	6.22e5	6.31e5	igl	1
4.73e5		6.33e5		trr	1
1.80e6	1.99e6	1.25e6	1.46e6	CG15253	1
1.71e6	1.79e6	1.39e6	1.45e6	CG5910	1
1.60e6	1.58e6	1.38e6	1.53e6	Tehao	1
1.30e6	1.60e6	2.82e5	1.23e5	Sec61alpha	1
6.45e5		8.42e5		nocte	1
1.59e6	1.72e6	1.23e6	1.40e6	CG6753	1
1.49e6	1.52e6	1.24e6	1.32e6	CG13168	1
1.59e6	1.71e6	1.28e6	1.40e6	fos28F (retired record)	1
1.42e6	1.31e6	9.92e5	1.25e6	CG32305	1
1.46e6	1.52e6	1.22e6	1.34e6	CG4461	1
1.55e6	1.59e6	1.11e6	1.23e6	CG15247	1
1.53e6	1.53e6	1.09e6	1.20e6	Obp50d	1
1.54e6	1.45e6	1.06e6	1.18e6	Spn	1
1.44e6	1.62e6	1.14e6	1.17e6	Spn	2
1.53e6	1.42e6	1.03e6	1.18e6	Spn	3
1.26e6	1.37e6	1.25e6	1.37e6	Pbgs	1
1.44e6	1.49e6	1.03e6	1.08e6	CG11068	1
1.26e6	1.40e6	1.12e6	1.16e6	p47	1
1.49e6	1.60e6	9.61e5	1.09e6	CG30373	1
1.46e6	1.44e6	1.10e6	1.20e6	Cbl	1
1.54e6	1.44e6	1.02e6	1.09e6	Cbl	2
1.54e6	1.59e6	1.09e6	1.03e6	CG9331	1
1.58e6	1.60e6	1.00e6	1.14e6	TwdlC	1
1.71e6	1.67e6	1.42e6	1.44e6	Strica	1
1.59e6	1.59e6	1.11e6	1.27e6	GstE3	1
1.47e6	1.44e6	1.27e6	1.27e6	mgr	1
